Data source: PubChem BioAssay AID1671195 (Yale University, 2021)
The whole screen tested about 22,000 reagents; shown is a random part of them. About 1,510 of all reagents (6.9%) count as active. 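Active includes knockdowns raising or lowering LDL uptake; positive z-scores mean more uptake, negative mean less.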 A number with no mark means an inactive call. The numbers tell different reagents against one gene apart.

Assay: 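Genes whose knockdown alters LDL uptake in liver cancer cells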 (primary screen)
Cell system: human Huh7 hepatoma cells
Knock-down reagent: siRNA pool against human genes, 18 nM
Time to read-out: about 2 to 2.5 days of knockdown, then 8 h LDL uptake
Treatment: DiI-labelled LDL at 30 µg/ml for 8 h, in lipoprotein-deficient serum medium
Measured: 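Fluorescent LDL signal imaged in cells, scaled to the plate median, robust z-score for each replicate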
Direction: robust z-score: higher = more LDL uptake after knockdown
Call rule: 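Active when two or more replicates show a robust z-score above 2 or below -2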

gene knocked down | reagent | robust z-score, replicate 1 | robust z-score, replicate 2 | robust z-score, replicate 3
HHIPL2 (HHIP like 2) | 1 | -1.49 | -1.53 | -1.05
FLT4 (fms related receptor tyrosine kinase 4) | 1 | -0.661 | -1.18 | -0.76
OR4D10 (olfactory receptor family 4 subfamily D member 10) | 1 | 1.11 | 1.19 | 0.595
DDX59 (DEAD-box helicase 59) | 1 | -1.11 | -0.952 | -0.652
PRAME (PRAME nuclear receptor transcriptional regulator) | 1 | 0.533 | -1.18 | 0.503
LOC442408 (retired record) | 1 | -1.64 | -1.08 | -1.15
CCL20 (C-C motif chemokine ligand 20) | 1 | 1.5 | 0.16 | 0.502
GK6P (glycerol kinase 6 pseudogene) | 1 | -0.782 | -0.185 | -0.375
STMN1 (stathmin 1) | 1 | 0.87 | 1.03 | 0.316
STMN1 (stathmin 1) | 2 | -0.384 | -0.0147 | -0.585
SRF (serum response factor) | 1 | 2.48 (active) | 2.8 | 1.65
LINC00670 (long independently transcribed non-coding RNA 670) | 1 | 0.175 | 0.113 | 0.442
NDUFB11 (NADH:ubiquinone oxidoreductase subunit B11) | 1 | 0.308 | 0.11 | 0.385
PPCDC (phosphopantothenoylcysteine decarboxylase) | 1 | 2.91 (active) | 2.93 | 3.22
CIAO1 (cytosolic iron-sulfur assembly component 1) | 1 | 1.52 | -1.2 | -0.916
LINC02288 (long independently transcribed non-coding RNA 2288) | 1 | 2.47 (active) | 2.3 | 2.4
ZSWIM1 (zinc finger SWIM-type containing 1) | 1 | -1.13 | -1.11 | -1.24
LINC03033 (long independently transcribed non-coding RNA 3033) | 1 | 0.58 | 0.833 | 0.548
LINC03033 (long independently transcribed non-coding RNA 3033) | 2 | -1.02 | -0.481 | -0.536
SEC22C (SEC22 homolog C, vesicle trafficking protein) | 1 | 1.5 | 0.358 | 1.45
LOC440860 (retired record) | 1 | -0.666 | -0.899 | -1.08
LOC442624 (retired record) | 1 | 0.726 | 0.193 | -0.8
TFDP1P2 (TFDP1 pseudogene 2) | 1 | -1.45 | -1.38 | -1.36
GTF3C3 (general transcription factor IIIC subunit 3) | 1 | -1.7 | -1.79 | -1.57
WDR88 (WD repeat domain 88) | 1 | 0.516 | -0.487 | 0.253
MRPL28 (mitochondrial ribosomal protein L28) | 1 | -0.505 | -0.862 | -0.829
HCRTR2 (hypocretin receptor 2) | 1 | 0.429 | -0.592 | 0.162
SERTAD4 (SERTA domain containing 4) | 1 | -1.68 | -0.443 | -1.64
PPWD1 (peptidylprolyl isomerase domain and WD repeat containing 1) | 1 | -0.558 | -0.259 | -0.76
SLC43A3 | 1 | 1.42 | 0.0435 | 0.792
OR13F1 (olfactory receptor family 13 subfamily F member 1) | 1 | 0.352 | -0.074 | -0.247
PPP1R42 (protein phosphatase 1 regulatory subunit 42) | 1 | 0.565 | 0.501 | 0.755
CLMN (calmin) | 1 | 0.704 | 0.805 | 0.168
MSS51 (MSS51 mitochondrial translational activator) | 1 | 1.26 | 1.15 | 0.776
RPL18AP4 (ribosomal protein L18a pseudogene 4) | 1 | -0.241 | -0.759 | -1.78
CPNE8 (copine 8) | 1 | 1.75 | 1.53 | 0.93
NSUN6 (NOP2/Sun RNA methyltransferase 6) | 1 | -0.446 | -0.257 | -0.288
CLEC4G (C-type lectin domain family 4 member G) | 1 | -1.1 | -1.08 | -1.4
NCMAP (non-compact myelin associated protein) | 1 | 1.34 | 0.392 | 0.893
LOC401606 (retired record) | 1 | -1.12 | -1.2 | -1.17
IL17D (interleukin 17D) | 1 | 1 | 0.0983 | 2.68
KRT31 (keratin 31) | 1 | 1.17 | -0.514 | 0.332
OR2L13 (olfactory receptor family 2 subfamily L member 13) | 1 | -1.4 | -1.26 | -1.34
IL22RA1 (interleukin 22 receptor subunit alpha 1) | 1 | -0.185 | -0.407 | -0.397
MTG1 (mitochondrial ribosome associated GTPase 1) | 1 | 1.66 | 0.588 | 0.614
PEAK1 (pseudopodium enriched atypical kinase 1) | 1 | 0.0989 | -0.437 | 0.547
TBL1Y (transducin beta like 1 Y-linked) | 1 | 0.0761 | -0.202 | -0.327
CCL24 (C-C motif chemokine ligand 24) | 1 | -1.59 | -1.63 | -1.27
GCLM (glutamate-cysteine ligase modifier subunit) | 1 | -0.826 | 0.641 | 0.327
FRG2DP (FSHD region gene 2 family member D, pseudogene) | 1 | -1.06 | -0.816 | -0.952
CHD3 (chromodomain helicase DNA binding protein 3) | 1 | -0.801 | -0.785 | -0.506
HTR6 (5-hydroxytryptamine receptor 6) | 1 | -0.388 | -0.0965 | -0.586
PYY2 (peptide YY 2 (pseudogene)) | 1 | 4.1 | 1.75 | 1.5
NSUN5P2 (NSUN5 pseudogene 2) | 1 | 0.533 | 1.02 | 1.04
GRIK1 (glutamate ionotropic receptor kainate type subunit 1) | 1 | -0.792 | -0.801 | -0.657
DIP2C (DIP2 acetate--CoA ligase C (putative)) | 1 | 0.493 | 1.5 | -0.427
F9 (coagulation factor IX) | 1 | -2.36 (active) | -1.75 | -1.99
RNPC3 (RNA binding region (RNP1, RRM) containing 3) | 1 | 0.632 | 1.91 | -0.185
ENG (endoglin) | 1 | 0.361 | 0.539 | -0.215
LOC728626 | 1 | -0.432 | -0.378 | -0.48
MROH8 (maestro heat like repeat family member 8) | 1 | 0.0867 | -0.0529 | -1.13
ACER1 (alkaline ceramidase 1) | 1 | -0.748 | -1.2 | -1.08
OR52K1 (olfactory receptor family 52 subfamily K member 1) | 1 | 0.0653 | 0.041 | -0.152
PXDN (peroxidasin) | 1 | 0.366 | 0.904 | 0.271
PEAK3 (PEAK family member 3) | 1 | -1.64 | -1.12 | -1.64
CSAD (cysteine sulfinic acid decarboxylase) | 1 | -0.749 | -0.0937 | -0.541
NCAPH2 (non-SMC condensin II complex subunit H2) | 1 | -0.668 | -0.672 | -2.43
MT1A (metallothionein 1A) | 1 | -0.204 | -0.171 | -0.13

Entries listed so far whose gene name begins with F or f (3):
gene knocked down | reagent | robust z-score, replicate 1 | robust z-score, replicate 2 | robust z-score, replicate 3
FLT4 (fms related receptor tyrosine kinase 4) | 1 | -0.661 | -1.18 | -0.76
FRG2DP (FSHD region gene 2 family member D, pseudogene) | 1 | -1.06 | -0.816 | -0.952
F9 (coagulation factor IX) | 1 | -2.36 (active) | -1.75 | -1.99
